Earlier results in patent US9682049B2, “Non-racemic mixtures of various ratios of D- and L-methadone and methods of treating pain using the same” (priority 2015, dated 2017).

System: C-fiber evoked response
Details: Carpenter et al. 2000; cited from earlier work

Row | SMILES | inhibition of C-fiber evoked response
1 | CCC(=O)C(CC(C)N(C)C)(c1ccccc1)c1ccccc1 (racemic) [racemic methadone, methadone] | inhibited C-fiber evoked response similar to morphine
2 | CCC(=O)C(C[C@H](C)N(C)C)(c1ccccc1)c1ccccc1 [D-methadone, (S)-(+)-methadone] | weaker but similar inhibitory activity
